No constants are given. Whether binding was seen depends on the method and setting. In cells and extracts the contact can be indirect. Some results given as binding are weak or reduced against the parent protein; the word gives no strength.
Target: PCNA (mouse (endogenous in KB2P1.21)) (UniProt P17918)
Experiment: proximity ligation; KB2P1.21 cells labelled with 10 uM EdU for 30 min, pre-extracted with CSK buffer, fixed with PFA; anti-MDC1 and anti-PCNA primary antibodies, Duolink kit; PLA foci counted in EdU-positive nuclei; MDC1-proficient against MDC1-deficient cells

Chains of the proteins cited; added tags and fusions are not shown.
UniProt P17918: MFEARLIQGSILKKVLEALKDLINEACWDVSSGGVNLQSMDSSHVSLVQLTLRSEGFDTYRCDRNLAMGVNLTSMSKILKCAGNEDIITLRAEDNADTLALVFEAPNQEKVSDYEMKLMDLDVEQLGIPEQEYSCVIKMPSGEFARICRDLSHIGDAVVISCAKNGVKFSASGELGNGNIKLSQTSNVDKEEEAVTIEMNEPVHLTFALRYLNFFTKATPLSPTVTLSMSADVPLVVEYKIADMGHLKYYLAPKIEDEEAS
UniProt Q5PSV9: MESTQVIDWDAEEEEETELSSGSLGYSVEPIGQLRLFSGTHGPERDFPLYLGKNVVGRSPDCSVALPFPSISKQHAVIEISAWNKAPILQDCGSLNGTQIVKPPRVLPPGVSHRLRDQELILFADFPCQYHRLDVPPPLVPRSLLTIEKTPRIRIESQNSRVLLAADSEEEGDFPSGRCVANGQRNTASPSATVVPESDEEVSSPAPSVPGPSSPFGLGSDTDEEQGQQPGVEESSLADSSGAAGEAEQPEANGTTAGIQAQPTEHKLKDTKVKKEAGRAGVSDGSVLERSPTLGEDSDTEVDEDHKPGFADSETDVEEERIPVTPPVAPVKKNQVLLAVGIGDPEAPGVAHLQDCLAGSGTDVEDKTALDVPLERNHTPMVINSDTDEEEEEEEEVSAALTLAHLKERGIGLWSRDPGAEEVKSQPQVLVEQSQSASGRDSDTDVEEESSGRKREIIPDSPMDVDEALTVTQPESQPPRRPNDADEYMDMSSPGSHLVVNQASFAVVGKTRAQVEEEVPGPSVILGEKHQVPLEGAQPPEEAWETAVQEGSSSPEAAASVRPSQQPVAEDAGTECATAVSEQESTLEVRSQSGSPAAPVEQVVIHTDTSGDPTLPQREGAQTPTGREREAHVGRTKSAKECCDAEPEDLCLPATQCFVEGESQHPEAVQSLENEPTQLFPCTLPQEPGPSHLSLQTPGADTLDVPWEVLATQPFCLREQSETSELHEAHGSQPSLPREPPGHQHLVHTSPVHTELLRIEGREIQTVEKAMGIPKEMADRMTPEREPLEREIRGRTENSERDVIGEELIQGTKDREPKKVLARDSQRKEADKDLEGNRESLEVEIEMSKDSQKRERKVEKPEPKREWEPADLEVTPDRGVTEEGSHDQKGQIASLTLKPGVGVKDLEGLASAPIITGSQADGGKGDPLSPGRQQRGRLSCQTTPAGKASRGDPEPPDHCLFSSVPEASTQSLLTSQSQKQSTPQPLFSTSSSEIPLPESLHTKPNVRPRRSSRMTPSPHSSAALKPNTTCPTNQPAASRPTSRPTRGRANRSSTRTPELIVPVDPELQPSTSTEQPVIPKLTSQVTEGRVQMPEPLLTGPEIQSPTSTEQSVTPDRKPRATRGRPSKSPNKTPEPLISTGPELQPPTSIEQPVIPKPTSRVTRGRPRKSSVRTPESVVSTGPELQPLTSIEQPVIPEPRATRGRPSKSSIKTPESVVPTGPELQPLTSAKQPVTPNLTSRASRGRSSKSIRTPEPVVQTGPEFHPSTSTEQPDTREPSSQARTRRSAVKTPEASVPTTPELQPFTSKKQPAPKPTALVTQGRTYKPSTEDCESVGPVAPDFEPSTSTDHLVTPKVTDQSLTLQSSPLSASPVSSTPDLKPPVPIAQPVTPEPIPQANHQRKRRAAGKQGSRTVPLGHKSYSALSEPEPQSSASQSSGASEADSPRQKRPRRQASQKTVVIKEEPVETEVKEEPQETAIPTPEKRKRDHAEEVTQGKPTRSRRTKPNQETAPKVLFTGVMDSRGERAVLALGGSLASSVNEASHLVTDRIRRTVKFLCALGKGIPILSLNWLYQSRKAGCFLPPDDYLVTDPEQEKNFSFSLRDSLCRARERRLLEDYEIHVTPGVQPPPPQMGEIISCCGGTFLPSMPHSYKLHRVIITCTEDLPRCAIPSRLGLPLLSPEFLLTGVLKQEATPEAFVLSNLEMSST

binding: binds
Substance: MDC1 (from UniProt Q5PSV9 1-1707)

Source: publication PMC12815688
